Assay results: patent US20240165082A1, “ORALLY ADMINISTERED COMPOSITIONS FOR CANCER TREATMENT” (priority 2021, published 2024)
At least one structure is not confirmed: it was looked up by name or label, or the drawing left a doubt.

Tested on: YAC-1 lymphoma cells
Assay: NK cell function, in vivo mouse model with 51Cr-labeled YAC-1 lymphoma cells (lung radioactivity)
Details: injected 24 h before i.v. 51Cr-labeled YAC-1 cells; lungs measured 4 h later

Question: `CNC(=C[N+](=O)[O-])NCCSCc1ccc(CN(C)C)o1` [ranitidine] was tested. Which “level of radioactivity in lungs” value did it give?
Answer: The value was “tripling”.
